Test results from the supplement of paper PMC5407854, “Inhibitor of ppGalNAc-T3-mediated O-glycosylation blocks cancer cell invasiveness and lowers FGF23 levels” (eLife, 2017).
In all, about 1,700 compounds were measured (“T2 sensor activation Q score (MG/GFP ratio z-score vs DMSO controls)”: median about 0.3, highest 2% from about 1.9 on). The list shows a part of the results.

These compounds were tested on ppGalNAc-T2 sensor (assay: T2 sensor activation Q score (MG/GFP ratio z-score vs DMSO controls) (SD units); higher = more sensor activation (inhibition of ppGalNAc-T2 glycosylation)). Conditions: HEK293 sensor cells; 10 µM; 6 h.
Protocol: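 Cells were treated with compound at 10 uM for 6 h, then MG/GFP ratio was read by flow cytometry (10,000 cells per well, duplicate wells). Q = (R - R_neg)/SD_neg relative to DMSO vehicle controls; the signal rises when the glycosyltransferase is inhibited.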

Compound | T2 sensor activation Q score
CCOC(=O)Nc1ccc2nc(N3CCCCCC3)sc2c1 | 0.95
CC(C)(C)c1ccc(OC(=O)c2ccccc2)cc1 | 0.95
CN=C1C=C/C(=N/N=c2/ccn(O)cc2C)C=C1C | 0.65
Nc1nc(F)nc2c1ncn2C1OC(COP(=O)(O)O)C(O)C1O (stereo not given) | -0.75
CCOC(=O)c1c(C)nc(C)c(C(=O)OCC)c1-c1cccnc1 | 0.2
Cc1cc2c3ccccc3ncn2n1 | -0.25
Cc1cc2c(c(C#N)c1C)NC=NC2C (stereo not given) | 1.1
c1ccc2c(c1)Nc1ccncc1S2 | -0.35
CN(C)c1ccc(N=Nc2cccc3ccoc23)cc1 | 1.45
Cn1c(N)c(N=Nc2ccc(S(N)(=O)=O)cc2)c(=O)n(C)c1=O | 1.65
COC(=O)c1ccc(Cn2cnc3c(Cl)ncnc32)cc1 | 1.6
CN1CCN(C2=NCCO2)CC1 | -2.9
CC(C)CCCCCCCCCCCCC(=O)NCC(=O)NC1C(C)OC(Nc2ncnc3nc[nH]c23)C(O)C1O (stereo not given) | 8.6
CCCNC(=S)Nc1ccccc1 | -0.3
O=C1NC(=S)S/C1=C\c1ccccc1C(=O)O | -1.45
c1coc(CNc2ncnc3[nH]ncc23)c1 | 0.7
CN1CCC(n2[nH]c(-c3ccccc3)c(Cc3ccccc3)c2=O)CC1 | -0.2
CC1=Nc2ccccc2/C1=C\c1c(C)[nH]c2ccccc12 | -0.55

Compound | T2 sensor activation Q score
COC(=O)N1C2CCCCC2=NN(c2ccccc2)N1C(=O)OC (stereo not given) | -1.9
CCOc1ccc(NC(=O)c2cc3ccccc3cc2O)cc1 | 1.65
CCOC(=O)Cc1csc2nc(-c3ccccc3)nn12 | 0.7
N#CN=C(N)c1ccccc1 | 1
O=C1c2cccc(Oc3ccccc3)c2C(=O)c2cccc(Oc3ccccc3)c21 | 0.25
CCCCCCCC1(C)NC(=O)NC1=O (stereo not given) | 1.7
Cc1c2cnccc2c(C)c2c1c1ccccc1n2CCOC(=O)c1ccccc1 | 0.1
Cc1nc(C(N)=O)nc2ccccc12 | 1.3
C(=N\n1cnnc1)/c1ccc2c(c1)CCC2 | 0.4
COC(=O)c1cc2c(n1S(=O)(=O)c1ccc(C)cc1)C(=O)C(=O)c1[nH]cc(C(=O)OCc3ccccc3)c1-2 | 2
CC(C)(C)c1ccc(C(=O)Nc2ccc(S(N)(=O)=O)cc2)cc1 | 0.65
COc1ccc(OC)c(NC(=O)c2cc3oc4ccccc4c3cc2O)c1 | 0
Cn1ncc2c(Nc3ccc([N+](=O)[O-])cc3)nc(Cl)nc21 | -0.5
Clc1nc(NCCc2ccccc2)c2cn[nH]c2n1 | 0.9
CC[C@@]1(O)C(=O)OCc2c1cc1n(c2=O)Cc2cc3c(CN(C)C)c(O)ccc3nc2-1 | 0.9
O=C1C2CC3N1CCC31c3ccccc3-n3c1c2ccc3=O (stereo not given) | 0.7
CC(=O)O[C@]1(C(C)=O)CC[C@H]2[C@@H]3C=C(C)C4=CC(=O)CC[C@]4(C)[C@H]3CC[C@@]21C | -1.55

Quoted at random: three compounds from above.
Compound | T2 sensor activation Q score
Nc1nc(F)nc2c1ncn2C1OC(COP(=O)(O)O)C(O)C1O (stereo not given) | -0.75
CC(C)(C)c1ccc(OC(=O)c2ccccc2)cc1 | 0.95
CC(C)(C)c1ccc(C(=O)Nc2ccc(S(N)(=O)=O)cc2)cc1 | 0.65
